No constants are given. Whether binding was seen depends on the method and setting. Binding seen in cells or lysates may run through a third protein. Some binding calls cover weakened binding; strength is not graded here. Each block holds one substance with its values, some of them ahead of it.
Experiments:
[1] = molecular target: Yin Yang 1 (YY1), endogenous in CRC cells (human (endogenous in HCT116, LOVO, DLD1)) (UniProt P25490); assay: co-IP; endogenous proteins in HCT116, LOVO and DLD1 cell lysates; Protein A/G magnetic beads with primary antibody, overnight at 4 °C, washed with 1 x PBS + 0.5% Tween-20, pH 7.4; immunoblot
[2] = molecular target: HA-USP7 (ubiquitin-specific protease 7), exogenous in HEK 293T cells (human) (UniProt Q93009); assay: co-IP; HEK 293T cell extracts with exogenous Flag-YY1 and HA-USP7; magnetic beads, overnight at 4 °C, washed with 1 x PBS + 0.5% Tween-20, pH 7.4; immunoblot
[3] = molecular target: Ubiquitin-specific protease 7 (USP7), endogenous in CRC cells (human (endogenous in HCT116, LOVO, DLD1)) (UniProt Q93009); assay: co-IP; endogenous proteins in HCT116, LOVO and DLD1 cell lysates; Protein A/G magnetic beads with primary antibody, overnight at 4 °C, washed with 1 x PBS + 0.5% Tween-20, pH 7.4; immunoblot
[4] = molecular target: Flag-YY1 (Yin Yang 1), exogenous in HEK 293T cells (human) (UniProt P25490); assay: co-IP; HEK 293T cell extracts with exogenous Flag-YY1 and HA-USP7; magnetic beads, overnight at 4 °C, washed with 1 x PBS + 0.5% Tween-20, pH 7.4; immunoblot

Amino acid sequences for entries named in this document (tags omitted).
UniProt P25490: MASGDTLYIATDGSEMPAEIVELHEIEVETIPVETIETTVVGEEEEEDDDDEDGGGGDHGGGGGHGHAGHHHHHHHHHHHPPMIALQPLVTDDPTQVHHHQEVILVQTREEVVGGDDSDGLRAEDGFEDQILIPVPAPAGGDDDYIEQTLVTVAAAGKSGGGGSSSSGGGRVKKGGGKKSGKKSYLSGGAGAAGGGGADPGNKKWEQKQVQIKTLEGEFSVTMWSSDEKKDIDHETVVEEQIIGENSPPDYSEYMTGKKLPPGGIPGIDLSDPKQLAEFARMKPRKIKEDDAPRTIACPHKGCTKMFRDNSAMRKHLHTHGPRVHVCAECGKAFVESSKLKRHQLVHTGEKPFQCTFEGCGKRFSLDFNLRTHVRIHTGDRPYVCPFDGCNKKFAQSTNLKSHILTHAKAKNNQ
UniProt Q93009: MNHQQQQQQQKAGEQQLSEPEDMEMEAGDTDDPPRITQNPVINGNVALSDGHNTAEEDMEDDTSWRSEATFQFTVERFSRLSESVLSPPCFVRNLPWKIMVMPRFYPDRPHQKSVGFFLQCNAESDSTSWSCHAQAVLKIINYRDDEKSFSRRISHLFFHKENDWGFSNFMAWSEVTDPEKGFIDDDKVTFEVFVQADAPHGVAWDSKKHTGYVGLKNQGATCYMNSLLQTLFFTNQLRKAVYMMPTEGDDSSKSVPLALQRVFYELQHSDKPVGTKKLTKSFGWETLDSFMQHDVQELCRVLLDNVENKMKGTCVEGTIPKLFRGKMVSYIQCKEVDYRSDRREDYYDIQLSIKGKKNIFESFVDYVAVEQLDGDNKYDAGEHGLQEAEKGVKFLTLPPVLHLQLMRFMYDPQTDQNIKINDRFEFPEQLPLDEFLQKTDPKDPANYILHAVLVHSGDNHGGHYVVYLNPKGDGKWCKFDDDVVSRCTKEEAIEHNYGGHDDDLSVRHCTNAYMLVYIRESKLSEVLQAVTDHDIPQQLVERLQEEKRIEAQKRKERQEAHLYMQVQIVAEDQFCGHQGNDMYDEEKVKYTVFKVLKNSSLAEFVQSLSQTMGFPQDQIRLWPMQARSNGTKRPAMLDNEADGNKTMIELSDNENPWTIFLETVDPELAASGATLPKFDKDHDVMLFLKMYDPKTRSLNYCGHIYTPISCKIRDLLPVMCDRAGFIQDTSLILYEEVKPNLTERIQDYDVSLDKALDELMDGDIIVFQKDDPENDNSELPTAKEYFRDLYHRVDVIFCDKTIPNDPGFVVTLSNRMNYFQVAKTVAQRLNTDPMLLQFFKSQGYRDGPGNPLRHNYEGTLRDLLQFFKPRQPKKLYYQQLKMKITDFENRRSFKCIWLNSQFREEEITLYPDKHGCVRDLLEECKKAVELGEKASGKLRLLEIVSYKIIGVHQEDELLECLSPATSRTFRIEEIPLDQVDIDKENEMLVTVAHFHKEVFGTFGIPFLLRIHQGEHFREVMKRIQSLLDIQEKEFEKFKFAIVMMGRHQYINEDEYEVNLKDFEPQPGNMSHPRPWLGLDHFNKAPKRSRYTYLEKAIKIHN

binding [1]: binds
Substance: Ubiquitin-specific protease 7 (USP7), endogenous in CRC cells (from UniProt Q93009 1-1102) (enzyme)

binding [2]: binds
Substance: Flag-YY1 (Yin Yang 1), exogenous in HEK 293T cells (from UniProt P25490 1-414)

binding [3]: binds
Substance: Yin Yang 1 (YY1), endogenous in CRC cells (from UniProt P25490 1-414)

binding [4]: binds
Substance: HA-USP7 (ubiquitin-specific protease 7), exogenous in HEK 293T cells (from UniProt Q93009 1-1102) (enzyme)

Reference: paper PMC11106261
